Data published in PMC10675008.

Biological target: T1, Myc-tagged version of A. thaliana phosphoribulokinase (PRK-Myc) (A. thaliana) (UniProt P25697)
T1 sequence: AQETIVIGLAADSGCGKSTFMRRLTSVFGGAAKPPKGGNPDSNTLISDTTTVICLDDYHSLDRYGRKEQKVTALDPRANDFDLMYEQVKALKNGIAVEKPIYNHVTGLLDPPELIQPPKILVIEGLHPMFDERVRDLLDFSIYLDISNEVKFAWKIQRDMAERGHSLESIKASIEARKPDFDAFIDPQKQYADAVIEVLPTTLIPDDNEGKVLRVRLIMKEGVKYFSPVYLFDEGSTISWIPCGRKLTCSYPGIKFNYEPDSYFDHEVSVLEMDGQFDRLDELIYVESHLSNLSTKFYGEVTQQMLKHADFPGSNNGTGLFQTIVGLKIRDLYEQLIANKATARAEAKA
Assay: co-IP; proteins co-expressed in agroinfiltrated N. benthamiana leaves (collected after 5 days); protein extracts immunoprecipitated with anti-Myc, immunoblot with anti-Myc and anti-HA

Substance: SlDXS2 with a hemagglutinin (HA) tag (SlDXS2-HA) (tomato (Solanum lycopersicum)) (enzyme)
- binding: no binding

These are yes or no findings as the source states them, for the method shown. Binding seen in cells or lysates may run through a third protein. Tags and fused reporters may be left off the sequences shown.
